# From the supplement of paper PMC4683952
# Structures can show the parent of a compound that is named as a salt. Some of the results follow. Rule as the data show it: active = 2.5 or more and inactive = the rest. Most values lie within the scatter of the assay; repeated measurements hardly agree.
# System: Lgr5 (MarsCy1-Lgr5-EGFP, U2OS)
# Experiment: cell-surface Lgr5 expression (SCi1 fluorescence, background-subtracted) relative to WT control (fold of WT control); higher = more Lgr5 at the plasma membrane
# Conditions: U2OS MarsCy1-Lgr5-EGFP stable; treatment time: overnight; library: Prestwick; 20 µM
row,Structure (SMILES),cell-surface Lgr5 expression
1,O=C1C(O)=C([C@H]2CC[C@H](c3ccc(Cl)cc3)CC2)C(=O)c2ccccc21 [Atovaquone],inactive: 2.19
2,Cc1ccccc1C(OCCN(C)C)c1ccccc1 (stereo unspecified) [Orphenadrine hydrochloride],inactive: 0.562
3,COC(=O)C1=C(C)NC(C)=C(C(=O)OCCN(C)Cc2ccccc2)C1c1cccc([N+](=O)[O-])c1 (stereo unspecified) [Nicardipine hydrochloride],inactive: 1.56
4,COC(=O)[C@H]1[C@H]2C[C@@H]3c4[nH]c5cc(OC)ccc5c4CCN3C[C@H]2C[C@@H](OC(=O)/C=C/c2cc(OC)c(OC)c(OC)c2)[C@@H]1OC [Rescinnamin],inactive: 2.06
5,CCC1NC(=O)c2cc(S(N)(=O)=O)c(Cl)cc2N1 (stereo unspecified) [Quinethazone],inactive: 1.03
6,COc1ccccc1N1CCN(CCCCNC(=O)c2ccc3ccccc3c2)CC1,active: 2.67
7,"CC(O)(P(=O)(O)O)P(=O)(O)O [Etidronic acid, disodium salt]",inactive: 2.3
8,Cc1cnc(C(=O)NCCc2ccc(S(=O)(=O)NC(=O)NC3CCCCC3)cc2)cn1 [Glipizide],inactive: 1.07
9,CN1CCOC(c2ccccc2)c2ccccc2C1 (stereo unspecified) [Nefopam hydrochloride],inactive: 0.792
10,CN1CCC(=C2c3ccccc3CCc3sccc32)CC1 [Pizotifen malate],inactive: 1.91
11,"CCN(CC)CCOc1ccc(C(=C(Cl)c2ccccc2)c2ccccc2)cc1 [Clomiphene citrate (Z,E)]",inactive: 0.985
12,CCCCNc1ccc(C(=O)OCCN(C)C)cc1,inactive: 2.19
13,CN(C)[C@@H]1C(O)=C(C(=O)NCNCCCC[C@H](N)C(=O)O)C(=O)[C@@]2(O)C(O)=C3C(=O)c4c(O)cccc4[C@@](C)(O)[C@H]3C[C@@H]12 [Lymecycline],inactive: 1.42
14,COc1ccccc1N1CCN(CCCNc2cc(=O)n(C)c(=O)n2C)CC1 [Urapidil hydrochloride],inactive: 0.807
15,CCC(=O)OCC(=O)[C@@]1(OC(=O)CC)[C@@H](C)C[C@H]2[C@@H]3CCC4=CC(=O)C=C[C@]4(C)[C@@]3(Cl)[C@@H](O)C[C@@]21C [Beclomethasone dipropionate],active: 5
16,O=C(/C=C/C=C/c1ccc2c(c1)OCO2)N1CCCCC1 [Piperine],inactive: 1.29
17,CCN(CC)Cc1cc(Nc2ccnc3cc(Cl)ccc23)ccc1O [Amodiaquin dihydrochloride dihydrate],inactive: 0.45
18,"CC(C)NCC(O)c1cc(O)cc(O)c1 (stereo unspecified) [Metaproterenol sulfate, orciprenaline sulfate]",active: 3.51
19,C#CCN(C)CCCOc1ccc(Cl)cc1Cl [Clorgyline hydrochloride],inactive: 1.45
20,O=C(O)CN(CCN(CC(=O)O)CC(=O)O)CCN(CC(=O)O)CC(=O)O [Pentetic acid],inactive: 2.03
21,Cn1c(=O)c2c(ncn2CCO)n(C)c1=O [Etofylline],inactive: 1.27
22,O=C1OC(CN2CCOCC2)CN1/N=C/c1ccc([N+](=O)[O-])o1 (stereo unspecified) [Furaltadone hydrochloride],active: 3.81

row,Structure (SMILES),cell-surface Lgr5 expression
1,CNCCCN1c2ccccc2CCc2ccccc21 [Desipramine hydrochloride],inactive: 1.2
2,O=C(O)[C@]1(O)C[C@@H](O)[C@@H](O)[C@H](O)C1 [Quinic acid],inactive: 1.7
3,Cc1cccc(Nc2ccccc2C(=O)O)c1C [Mefenamic acid],inactive: 1.12
4,C[n+]1ccccc1/C=N/O [Pralidoxime chloride],inactive: 2.1
5,CCN(CC)CCNC(=O)COc1ccc(OC)cc1 [Mefexamide hydrochloride],inactive: 1.58
6,Clc1ccc(C(Cn2ccnc2)OCc2csc3c(Cl)cccc23)c(Cl)c1 (stereo unspecified) [Sertaconazole nitrate],inactive: 1.21
7,CC(=O)OCC1=C(C(=O)O)N2C(=O)[C@@H](NC(=O)Cc3cccs3)[C@H]2SC1 [Cephalothin sodium salt],inactive: 1.62
8,CC1(C)S[C@@H]2[C@H](NC(=O)Cc3ccccc3)C(=O)N2[C@H]1C(=O)O [Benzathine benzylpenicillin],inactive: 1.28
9,CC1(C)S[C@@H]2[C@H](NC(=O)Cc3ccccc3)C(=O)N2[C@H]1C(=O)O [Benzylpenicillin sodium],inactive: 0.762
10,O=C1CCC(N2C(=O)c3ccccc3C2=O)C(=O)N1 (stereo unspecified) [Thalidomide],inactive: 2.19
11,NCC[C@H](O)C(=O)N[C@@H]1C[C@H](N)[C@@H](O[C@H]2O[C@H](CN)[C@@H](O)[C@H](O)[C@H]2O)[C@H](O)[C@H]1O[C@H]1O[C@H](CO)[C@@H](O)[C@H](N)[C@H]1O [Amikacin hydrate],inactive: 0.933
12,CN1CCC(OC(c2ccccc2)c2ccccc2)CC1 [Diphenylpyraline hydrochloride],inactive: 1.61
13,Fc1ccc([C@@H]2CCNC[C@H]2COc2ccc3c(c2)OCO3)cc1 [Paroxetine Hydrochloride],inactive: 1.8
14,CN(C)CCCN1c2ccccc2CCc2ccccc21 [Imipramine hydrochloride],inactive: 1.12
15,NC(CO)C(=O)NNCc1ccc(O)c(O)c1O (stereo unspecified) [Benserazide hydrochloride],inactive: 2.03
16,NCCC[C@H](N)CC(=O)N[C@H]1CNC(=O)[C@H]([C@H]2C[C@H](O)NC(N)=N2)NC(=O)/C(=C/NC(N)=O)NC(=O)[C@H](CO)NC(=O)[C@H](CO)NC1=O [Viomycin sulfate],inactive: 1.65
17,O=C(O)CCCC[C@@H]1SC[C@@H]2NC(=O)N[C@@H]21 [Biotin],inactive: 1.16
18,"C[C@@]1(O)CCOC(=O)C1 [Mevalonic-D, L acid lactone]",inactive: 2.37
19,COCC(=O)Nc1c(I)c(C(=O)NCC(O)CO)c(I)c(C(=O)N(C)CC(O)CO)c1I (stereo unspecified) [Iopromide],inactive: 2.39
20,CC1COc2c(N3CCN(C)CC3)c(F)cc3c(=O)c(C(=O)O)cn1c23 (stereo unspecified) [Ofloxacin],inactive: 1.14
21,C[C@H](CCC(=O)O)[C@H]1CC[C@H]2[C@@H]3CC[C@@H]4C[C@H](O)CC[C@]4(C)[C@H]3CC[C@]12C [Lithocholic acid],active: 2.6
22,CC(=O)SCC(Cc1ccccc1)C(=O)NCC(=O)OCc1ccccc1 (stereo unspecified) [Racecadotril],inactive: 2.08

row,Structure (SMILES),cell-surface Lgr5 expression
1,COC(=O)C1=C(C)NC(C)=C(C(=O)OC(C)C)C1c1cccc2nonc12 (stereo unspecified) [Isradipine],inactive: 1.08
2,Cn1cnc([N+](=O)[O-])c1Sc1ncnc2[nH]cnc12 [Azathioprine],active: 3.3
3,COc1c2c(nc3ccccc13)OC(C(C)(O)CO)C2 (stereo unspecified) [Dubinidine],inactive: 1.31
4,CC(C)C(=O)Nc1ccc([N+](=O)[O-])c(C(F)(F)F)c1 [Flutamide],inactive: 0.695
5,CN1Cc2c(N)cccc2C(c2ccccc2)C1 (stereo unspecified) [Nomifensine maleate],inactive: 1.1
6,CCN[C@@H]1C[C@H](N)[C@@H](O[C@H]2OC(CN)=CC[C@H]2N)[C@H](O)[C@H]1O[C@H]1OC[C@](C)(O)[C@H](NC)[C@H]1O [Netilmicin sulfate],inactive: 1.65
7,"c1ccc(CNc2ncnc3nc[nH]c23)cc1 [Aminopurine, 6-benzyl]",inactive: 2.06
8,CCOC(=O)[C@@](C)(N)Cc1ccc(O)c(O)c1 [Methyldopate hydrochloride],inactive: 1.26
9,O=C(c1ccccc1)c1ccc2n1CCC2C(=O)O (stereo unspecified) [Ketorolac tromethamine],inactive: 1.76
10,COc1ccccc1OCC(O)COC(N)=O (stereo unspecified) [Methocarbamol],inactive: 1.47
11,Cc1cc(N)c2ccccc2[n+]1CCCCCCCCCC[n+]1c(C)cc(N)c2ccccc21 [Dequalinium dichloride],inactive: 1.25
12,CC[C@@H](CO)NCCN[C@@H](CC)CO [Ethambutol dihydrochloride],inactive: 1.06
13,CC(=O)OCC(=O)[C@@]1(OC(C)=O)[C@@H](C)C[C@H]2[C@@H]3C[C@H](F)C4=CC(=O)C=C[C@]4(C)[C@@]3(F)[C@@H](O)C[C@@]21C [Diflorasone Diacetate],active: 3.65
14,CCCOc1ccc(C(=O)OCCN(CC)CC)cc1N [Proparacaine hydrochloride],active: 3.5
15,C#C[C@]1(O)CC[C@H]2[C@@H]3CCC4=CC(=O)CC[C@@H]4[C@H]3CC[C@@]21CC [Norgestrel-(-)-D],inactive: 1.93
16,N=C(N)NCCN1CCCCCCC1 [Guanethidine sulfate],inactive: 0.874
17,CC1(C)[C@@H](OC(=O)CCC(=O)O)CC[C@]2(C)[C@H]3C(=O)C=C4[C@@H]5C[C@@](C)(C(=O)O)CC[C@]5(C)CC[C@@]4(C)[C@]3(C)CC[C@@H]12 [Carbenoxolone disodium salt],active: 4.26
18,CC(CN(C)C)CN1c2ccccc2Sc2ccccc21 (stereo unspecified) [Trimeprazine tartrate],inactive: 1.65
19,C=CCOC(Cn1ccnc1)c1ccc(Cl)cc1Cl (stereo unspecified) [Enilconazole],inactive: 1.89
20,O=C(/C=C/c1ccc(O)c(O)c1)O[C@@H]1C[C@](O)(C(=O)O)C[C@@H](O)[C@H]1O [Chlorogenic acid],inactive: 1.88
21,c1ccc(CN(CC2=NCCN2)c2ccccc2)cc1 [Antazoline hydrochloride],inactive: 1.25
22,CC(C(=O)O)c1ccc(C(=O)c2ccccc2)s1 (stereo unspecified) [Tiaprofenic acid],inactive: 0.25

# Part of the list above, tab-delimited:
row	Structure (SMILES)	cell-surface Lgr5 expression
16	N=C(N)NCCN1CCCCCCC1 [Guanethidine sulfate]	inactive: 0.874
17	CC1(C)[C@@H](OC(=O)CCC(=O)O)CC[C@]2(C)[C@H]3C(=O)C=C4[C@@H]5C[C@@](C)(C(=O)O)CC[C@]5(C)CC[C@@]4(C)[C@]3(C)CC[C@@H]12 [Carbenoxolone disodium salt]	active: 4.26
18	CC(CN(C)C)CN1c2ccccc2Sc2ccccc21 (stereo unspecified) [Trimeprazine tartrate]	inactive: 1.65
19	C=CCOC(Cn1ccnc1)c1ccc(Cl)cc1Cl (stereo unspecified) [Enilconazole]	inactive: 1.89
20	O=C(/C=C/c1ccc(O)c(O)c1)O[C@@H]1C[C@](O)(C(=O)O)C[C@@H](O)[C@H]1O [Chlorogenic acid]	inactive: 1.88
